The record followed here is publication PMC7880690, “Chemical genetics and proteome-wide site mapping reveal cysteine MARylation by PARP-7 on immune-relevant protein targets” (eLife, 2021).

These are yes or no findings as the source states them, for the method shown. In cells and extracts the contact can be indirect. Here binding means that the protein was enriched with, or labelled near, the bait; the list need not be complete. Tags and fused reporters may be left off the sequences shown.

For this assay, the target named is T1, Myc-BirA*-WT-PARP-7 (UniProt Q7Z3E1).
T1 sequence: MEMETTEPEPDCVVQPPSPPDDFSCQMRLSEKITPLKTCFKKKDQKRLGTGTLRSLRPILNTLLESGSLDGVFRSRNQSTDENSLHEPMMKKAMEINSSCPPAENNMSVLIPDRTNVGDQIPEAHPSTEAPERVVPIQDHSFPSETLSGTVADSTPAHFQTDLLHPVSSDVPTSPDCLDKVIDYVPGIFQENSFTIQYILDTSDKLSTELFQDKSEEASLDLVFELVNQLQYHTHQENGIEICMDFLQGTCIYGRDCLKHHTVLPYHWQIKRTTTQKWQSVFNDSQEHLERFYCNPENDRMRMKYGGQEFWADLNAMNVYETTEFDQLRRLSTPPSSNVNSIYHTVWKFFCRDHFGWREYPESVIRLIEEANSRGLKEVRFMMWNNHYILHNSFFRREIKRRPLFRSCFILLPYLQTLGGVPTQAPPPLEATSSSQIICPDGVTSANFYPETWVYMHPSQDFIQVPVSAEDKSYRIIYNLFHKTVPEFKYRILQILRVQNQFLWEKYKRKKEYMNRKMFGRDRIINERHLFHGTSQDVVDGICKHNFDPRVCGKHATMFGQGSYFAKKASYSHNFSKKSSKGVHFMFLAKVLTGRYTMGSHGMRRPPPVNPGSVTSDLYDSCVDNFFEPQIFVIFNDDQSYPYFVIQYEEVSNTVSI
The assay is described as follows: proximity labelling; BioID in HEK 293T cells transfected with Myc-BirA*-PARP-7; biotin 50 μM; biotinylated proteins enriched on Neutravidin agarose; Western blot with an antibody against PARP-13.

For “PARP-13.1 (endogenous) (from UniProt Q7Z2W4-1 1-902)”, the binding entry was “binds”.
